Literature values in patent US20080312336A1, “Preventive and/or Therapeutic Agent for Diabetic Vascular Disorder and Respiratory Disorder” (priority 2005, published 2008).

System: rat isolated trachea
Settings: normal rats compared with diabetic rats; cited from earlier work

## NCCCC(=O)O [GABA, γ-aminobutyric acid]
  contraction-inhibitory effect, normal versus diabetic rats: significantly high in normal rats
